Results deposited as PubChem BioAssay AID720710 (VTT Finland, 2013)

Purpose: 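Knock-downs that leave cyclin E-high cells sensitive to replication stress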 (primary screen)
Cells: human U-2 OS bone cancer cells, parental and a cyclin E (CCNE1) overexpressing line
Reagents: single siRNA against human genes, 1 µM siRNA in the printed spot mix
Duration: 67 h
Treatment: half the arrays: hydroxyurea 2 mM for 16 h, then 3 h recovery; other arrays untreated
Read-out: 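DNA synthesis measured as imaged EdU uptake per nucleus (DAPI) at 67 h, normalised to subgrid median and given as z-score versus non-targeting controls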
Scale: EdU z-score, cyclin E line, hydroxyurea: higher = more DNA synthesis than non-targeting controls
Shown is an unselected part of about 1,380 reagents tested. 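One array per condition without replicates; hydroxyurea arrays received 2 mM for 16 h plus 3 h recovery.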 Reagents against one gene are numbered here. Further read-outs or replicates are left out here. Reagent sequences are not shown.

| EdU z-score, cyclin E line, hydroxyurea | Gene | siRNA no. |
| --- | --- | --- |
| -1.16 | EHMT1 | 1 |
| -0.355 | EHMT1 | 2 |
| -0.138 | SLX1A | 1 |
| 0.594 | SLX1A | 2 |
| -1.62 | H2AC4 | 1 |
| 1.88 | H2AC4 | 2 |
| 0.429 | NSMCE2 | 1 |
| 1.02 | NSMCE2 | 2 |
| -0.205 | HDAC8 | 1 |
| 0.505 | HDAC8 | 2 |
| -0.296 | PRIM2 | 1 |
| -0.122 | PRIM2 | 2 |
| -2.44 | MRE11 | 1 |
| -0.771 | MRE11 | 2 |
| -1.05 | NASP | 1 |
| 1.51 | NASP | 2 |
| 0.417 | FAAP24 | 1 |
| 1.7 | FAAP24 | 2 |
| 0.104 | LOC651610 | 1 |
| 3.26 | LOC651610 | 2 |
| -2.22 | CDK2 | 1 |
| -1.21 | CDK2 | 2 |
| 1.48 | NSD2 | 1 |
| 2.09 | NSD2 | 2 |
| -0.932 | FBH1 | 1 |
| 0.567 | FBH1 | 2 |
| -1.94 | DNMT3B | 1 |
| -0.254 | DNMT3B | 2 |
| -2.06 | RUVBL1 | 1 |
| -0.0983 | RUVBL1 | 2 |
| -1.27 | HELLS | 1 |
| -0.801 | HELLS | 2 |
| -0.458 | LRBA | 1 |
| -0.319 | LRBA | 2 |
| -0.48 | BARD1 | 1 |
| 0.234 | BARD1 | 2 |
| -2 | FAM120A | 1 |
| -1.17 | FAM120A | 2 |
| -1.85 | DDX12P | 1 |
| -0.13 | DDX12P | 2 |
| -1.69 | DDB2 | 1 |
| -0.236 | DDB2 | 2 |
| -1.26 | TOP3B | 1 |
| -1.01 | TOP3B | 2 |
| -1.82 | ORC3 | 1 |
| 1.01 | ORC3 | 2 |
| -2.06 | RAG1 | 1 |
| -0.312 | RAG1 | 2 |
| 0.36 | NAV2 | 1 |
| 0.496 | NAV2 | 2 |
| 0.225 | HDAC3 | 1 |
| 1.76 | HDAC3 | 2 |
| -1.57 | KMT2A | 1 |
| 0.813 | KMT2A | 2 |
| -1.14 | H1-10 | 1 |
| -0.0656 | H1-10 | 2 |
| 0.104 | CIB1 | 1 |
| 0.302 | CIB1 | 2 |

7 entries from above in another layout.
RAG1 #2
- EdU z-score, cyclin E line, hydroxyurea: -0.312

NAV2 #1
- EdU z-score, cyclin E line, hydroxyurea: 0.36

NAV2 #2
- EdU z-score, cyclin E line, hydroxyurea: 0.496

HDAC3 #1
- EdU z-score, cyclin E line, hydroxyurea: 0.225

HDAC3 #2
- EdU z-score, cyclin E line, hydroxyurea: 1.76

KMT2A #1
- EdU z-score, cyclin E line, hydroxyurea: -1.57

KMT2A #2
- EdU z-score, cyclin E line, hydroxyurea: 0.813
